Source: US20260185169A1, “MOLECULAR SIGNATURES TO PREDICT LONG-TERM LIVER FIBROSIS PROGRESSION” (THE BOARD OF REGENTS OF THE UNIVERSITY OF TEXAS SYSTEM, priority 2022, published 2026)
At least one read-out could not be matched to a standard name with certainty. Residues, ends and D or L forms follow the SMILES beside them. *: point of attachment. Cbz = O=C(OCc1ccccc1)*

Test system: clinical PCLS tissues
Experiment: FPS/PLS response (CES, nCounter) in organotypic ex vivo culture of clinical PCLS tissues
Format: cell-based, human
Description: Evaluation of galunisertib, erlotinib, AM095, bortezomib, pioglitazone, metformin, epigallocatechin gallate (EGCG), I-BET 151, JQ1, captopril, nizatidine (Selleck Chemicals); MG-132 (Sigma-Aldrich); cenicriviroc (AbbVie) (Table 2) were done in organotypic ex vivo culture of precision-cut liver slice (PCLS) tissues in the FPS validation set 2 as previously described. Patient-derived liver cell spheroids were generated from a cirrhosis patient and high-risk FPS was induced by free fatty acids, and treated with EGCG, bortezomib, cenicriviroc, and/or bezafibrate for 48 h. Mycoplasma-free human hepatic myofibroblast cell lines, LX-2 and TWNT-4, were cultured with MG-132 (20 μM) or DMSO control for 12 and 24 h in triplicates.
Total RNA was isolated from fixed tissue sections by using High Pure RNA Paraffin kit (Roche), and assessed for quality by qRT-PCR of RPL13A. Total RNA from the PCLS tissues was isolated using RNeasy kit (Qiagen). RNA samples (100-200 ng) were subjected to the PLS/FPS assay implemented in the nCounter platform (NanoString), and transcriptome profiling of the CENTAUR trial samples was performed by RNA-Seq (TrueSeq RNA Access, Illumina). Expression of BCL2, COL1A1, and ACTA2 genes was measured by qRT-PCR (Table 3). Serum protein profiling was performed by using xMAP assay (Luminex). […]

CC(C)C[C@@H](C=O)NC(=O)[C@H](CC(C)C)NC(=O)[C@H](CC(C)C)NC(=O)OCc1ccccc1 [MG132] (Cbz-Leu-Leu-Leu-aldehyde)
FPS response rate (percent of patients tested with CES-based FPS response, PCLS cultured 24 h with agent vs vehicle): 75% | PLS response rate (percent of patients tested with PLS response, ex vivo PCLS culture): 37.5%
